Results are given in words; binding and its absence hold for the method and conditions named. Binding seen in cells or lysates may run through a third protein. Where a sequence is shown, tags or fusion partners need not be part of it.
Target: FLAG-tagged mouse Cyclophilin D (CypD with a C-terminal Flag) (mouse) (UniProt Q99KR7)
Experiment: co-IP; HA-tagged SIRT3, SIRT4 or SIRT5 and FLAG-tagged CypD in transfected 293T cells; mitochondria lysed by sonication in low-stringency IP buffer (0.05% NP-40, 50 mM NaCl, 0.5 mM EDTA, 50 mM Tris-HCl pH 7.4, 10 mM nicotinamide, 1 uM trichostatin A); FLAG-tagged proteins immunoprecipitated with anti-FLAG M2-agarose

Chains of the proteins cited; added tags and fusions are not shown. Residues count along the entry.
UniProt Q99KR7, residues 30-206: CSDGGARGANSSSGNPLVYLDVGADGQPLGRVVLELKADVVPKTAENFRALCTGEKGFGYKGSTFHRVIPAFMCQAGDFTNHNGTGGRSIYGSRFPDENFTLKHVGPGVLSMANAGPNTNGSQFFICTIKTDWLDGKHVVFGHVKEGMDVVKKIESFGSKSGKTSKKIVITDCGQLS

binding: no binding
B1: HA-tagged SIRT4 (enzyme, UniProt Q9Y6E7 29-314)
chain: IGLFVPASPPLDPEKVKELQRFITLSKRLLVMTGAGISTESGIPDYRSEKVGLYARTDRRPIQHGDFVRSAPIRQRYWARNFVGWPQFSSHQPNPAHWALSTWEKLGKLYWLVTQNVDALHTKAGSRRLTELHGCMDRVLCLDCGEQTPRGVLQERFQVLNPTWSAEAHGLAPDGDVFLSEEQVRSFQVPTCVQCGGHLKPDVVFFGDTVNPDKVDFVHKRVKEADSLLVVGSSLQVYSGYRFILTAWEKKLPIAILNIGPTRSDDLACLKLNSRCGELLPLIDPC

— publication PMC3034180
